Amino acid sequences for entries named in this document (tags omitted). A change or cut given only in a name is not applied to a line headed by its entry. Chains listed by the source or under a name are the forms on record and can include a tag or linker. Residues count along the entry.
UniProt Q7Z2W4: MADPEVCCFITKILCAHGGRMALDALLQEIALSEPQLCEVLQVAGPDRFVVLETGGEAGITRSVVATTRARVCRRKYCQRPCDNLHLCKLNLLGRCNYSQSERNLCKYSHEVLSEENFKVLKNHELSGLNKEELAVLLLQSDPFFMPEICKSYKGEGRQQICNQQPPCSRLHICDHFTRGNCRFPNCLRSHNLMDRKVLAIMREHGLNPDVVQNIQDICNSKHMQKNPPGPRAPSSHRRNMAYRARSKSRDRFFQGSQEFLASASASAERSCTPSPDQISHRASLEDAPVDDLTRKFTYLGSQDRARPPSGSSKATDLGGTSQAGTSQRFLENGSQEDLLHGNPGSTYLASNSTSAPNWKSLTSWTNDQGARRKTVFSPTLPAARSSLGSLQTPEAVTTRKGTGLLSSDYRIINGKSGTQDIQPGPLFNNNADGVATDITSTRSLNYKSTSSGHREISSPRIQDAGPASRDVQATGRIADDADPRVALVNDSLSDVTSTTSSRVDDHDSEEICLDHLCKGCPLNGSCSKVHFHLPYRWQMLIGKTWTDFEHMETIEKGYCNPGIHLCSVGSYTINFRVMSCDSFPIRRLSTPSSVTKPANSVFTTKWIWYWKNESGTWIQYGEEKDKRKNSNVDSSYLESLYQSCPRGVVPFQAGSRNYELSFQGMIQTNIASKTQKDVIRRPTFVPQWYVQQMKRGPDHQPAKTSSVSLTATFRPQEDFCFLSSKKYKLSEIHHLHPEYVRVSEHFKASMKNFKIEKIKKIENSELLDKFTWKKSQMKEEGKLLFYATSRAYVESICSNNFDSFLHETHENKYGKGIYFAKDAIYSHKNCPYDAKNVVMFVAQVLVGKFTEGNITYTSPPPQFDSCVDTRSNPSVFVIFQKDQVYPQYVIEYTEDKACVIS
UniProt Q13547: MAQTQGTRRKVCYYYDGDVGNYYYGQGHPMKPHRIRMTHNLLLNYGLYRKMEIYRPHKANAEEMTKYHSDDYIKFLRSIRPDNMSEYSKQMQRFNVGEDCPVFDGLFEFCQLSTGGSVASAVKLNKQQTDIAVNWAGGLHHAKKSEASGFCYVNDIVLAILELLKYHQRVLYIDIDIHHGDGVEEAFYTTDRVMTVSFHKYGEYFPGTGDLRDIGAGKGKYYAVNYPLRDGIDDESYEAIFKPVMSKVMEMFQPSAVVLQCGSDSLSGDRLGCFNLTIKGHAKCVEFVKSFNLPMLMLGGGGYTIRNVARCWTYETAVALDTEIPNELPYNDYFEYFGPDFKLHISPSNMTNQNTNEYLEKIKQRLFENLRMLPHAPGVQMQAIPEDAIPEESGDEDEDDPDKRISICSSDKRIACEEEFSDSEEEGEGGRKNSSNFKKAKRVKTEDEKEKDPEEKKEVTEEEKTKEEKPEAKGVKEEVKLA
UniProt Q12905: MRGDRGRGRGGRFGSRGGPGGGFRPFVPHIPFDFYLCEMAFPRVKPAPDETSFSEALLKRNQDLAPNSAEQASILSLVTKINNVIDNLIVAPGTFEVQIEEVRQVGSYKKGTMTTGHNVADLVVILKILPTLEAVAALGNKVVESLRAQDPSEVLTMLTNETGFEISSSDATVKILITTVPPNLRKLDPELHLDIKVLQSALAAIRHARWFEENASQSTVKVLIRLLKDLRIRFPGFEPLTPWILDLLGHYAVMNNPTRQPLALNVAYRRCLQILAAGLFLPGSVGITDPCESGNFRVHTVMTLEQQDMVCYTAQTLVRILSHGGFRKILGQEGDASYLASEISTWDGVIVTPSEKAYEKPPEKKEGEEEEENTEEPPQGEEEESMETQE
UniProt P30153: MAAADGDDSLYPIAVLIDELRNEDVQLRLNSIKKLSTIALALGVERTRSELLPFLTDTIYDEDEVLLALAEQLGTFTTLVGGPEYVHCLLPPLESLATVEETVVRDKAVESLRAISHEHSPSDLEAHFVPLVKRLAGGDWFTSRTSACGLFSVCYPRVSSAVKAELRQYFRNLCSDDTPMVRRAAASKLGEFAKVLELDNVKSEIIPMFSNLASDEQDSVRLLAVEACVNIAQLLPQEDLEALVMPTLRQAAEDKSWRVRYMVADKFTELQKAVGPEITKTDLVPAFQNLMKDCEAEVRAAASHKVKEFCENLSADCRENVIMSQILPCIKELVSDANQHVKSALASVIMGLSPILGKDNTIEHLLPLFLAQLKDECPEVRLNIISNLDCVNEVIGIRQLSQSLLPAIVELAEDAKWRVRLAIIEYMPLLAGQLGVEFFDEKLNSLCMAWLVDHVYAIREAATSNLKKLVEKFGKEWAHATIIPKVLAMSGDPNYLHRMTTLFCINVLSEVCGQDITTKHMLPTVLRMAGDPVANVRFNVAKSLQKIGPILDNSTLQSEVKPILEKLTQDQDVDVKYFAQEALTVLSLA
UniProt O95793, residues 82-577: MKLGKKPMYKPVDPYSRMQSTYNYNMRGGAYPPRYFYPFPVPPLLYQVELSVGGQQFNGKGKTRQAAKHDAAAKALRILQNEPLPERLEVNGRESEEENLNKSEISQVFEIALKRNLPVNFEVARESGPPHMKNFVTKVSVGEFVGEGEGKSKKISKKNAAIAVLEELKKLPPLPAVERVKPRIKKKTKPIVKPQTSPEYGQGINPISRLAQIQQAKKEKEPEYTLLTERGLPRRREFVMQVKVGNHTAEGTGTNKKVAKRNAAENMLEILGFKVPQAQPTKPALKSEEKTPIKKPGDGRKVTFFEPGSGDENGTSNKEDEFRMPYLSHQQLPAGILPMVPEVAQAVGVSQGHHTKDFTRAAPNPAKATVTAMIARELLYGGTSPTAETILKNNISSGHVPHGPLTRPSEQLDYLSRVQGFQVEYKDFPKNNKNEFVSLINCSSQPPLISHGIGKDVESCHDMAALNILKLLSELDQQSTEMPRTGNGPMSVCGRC
Ubiquitin specific peptidase 9, X-linked (Q93008-3, form named): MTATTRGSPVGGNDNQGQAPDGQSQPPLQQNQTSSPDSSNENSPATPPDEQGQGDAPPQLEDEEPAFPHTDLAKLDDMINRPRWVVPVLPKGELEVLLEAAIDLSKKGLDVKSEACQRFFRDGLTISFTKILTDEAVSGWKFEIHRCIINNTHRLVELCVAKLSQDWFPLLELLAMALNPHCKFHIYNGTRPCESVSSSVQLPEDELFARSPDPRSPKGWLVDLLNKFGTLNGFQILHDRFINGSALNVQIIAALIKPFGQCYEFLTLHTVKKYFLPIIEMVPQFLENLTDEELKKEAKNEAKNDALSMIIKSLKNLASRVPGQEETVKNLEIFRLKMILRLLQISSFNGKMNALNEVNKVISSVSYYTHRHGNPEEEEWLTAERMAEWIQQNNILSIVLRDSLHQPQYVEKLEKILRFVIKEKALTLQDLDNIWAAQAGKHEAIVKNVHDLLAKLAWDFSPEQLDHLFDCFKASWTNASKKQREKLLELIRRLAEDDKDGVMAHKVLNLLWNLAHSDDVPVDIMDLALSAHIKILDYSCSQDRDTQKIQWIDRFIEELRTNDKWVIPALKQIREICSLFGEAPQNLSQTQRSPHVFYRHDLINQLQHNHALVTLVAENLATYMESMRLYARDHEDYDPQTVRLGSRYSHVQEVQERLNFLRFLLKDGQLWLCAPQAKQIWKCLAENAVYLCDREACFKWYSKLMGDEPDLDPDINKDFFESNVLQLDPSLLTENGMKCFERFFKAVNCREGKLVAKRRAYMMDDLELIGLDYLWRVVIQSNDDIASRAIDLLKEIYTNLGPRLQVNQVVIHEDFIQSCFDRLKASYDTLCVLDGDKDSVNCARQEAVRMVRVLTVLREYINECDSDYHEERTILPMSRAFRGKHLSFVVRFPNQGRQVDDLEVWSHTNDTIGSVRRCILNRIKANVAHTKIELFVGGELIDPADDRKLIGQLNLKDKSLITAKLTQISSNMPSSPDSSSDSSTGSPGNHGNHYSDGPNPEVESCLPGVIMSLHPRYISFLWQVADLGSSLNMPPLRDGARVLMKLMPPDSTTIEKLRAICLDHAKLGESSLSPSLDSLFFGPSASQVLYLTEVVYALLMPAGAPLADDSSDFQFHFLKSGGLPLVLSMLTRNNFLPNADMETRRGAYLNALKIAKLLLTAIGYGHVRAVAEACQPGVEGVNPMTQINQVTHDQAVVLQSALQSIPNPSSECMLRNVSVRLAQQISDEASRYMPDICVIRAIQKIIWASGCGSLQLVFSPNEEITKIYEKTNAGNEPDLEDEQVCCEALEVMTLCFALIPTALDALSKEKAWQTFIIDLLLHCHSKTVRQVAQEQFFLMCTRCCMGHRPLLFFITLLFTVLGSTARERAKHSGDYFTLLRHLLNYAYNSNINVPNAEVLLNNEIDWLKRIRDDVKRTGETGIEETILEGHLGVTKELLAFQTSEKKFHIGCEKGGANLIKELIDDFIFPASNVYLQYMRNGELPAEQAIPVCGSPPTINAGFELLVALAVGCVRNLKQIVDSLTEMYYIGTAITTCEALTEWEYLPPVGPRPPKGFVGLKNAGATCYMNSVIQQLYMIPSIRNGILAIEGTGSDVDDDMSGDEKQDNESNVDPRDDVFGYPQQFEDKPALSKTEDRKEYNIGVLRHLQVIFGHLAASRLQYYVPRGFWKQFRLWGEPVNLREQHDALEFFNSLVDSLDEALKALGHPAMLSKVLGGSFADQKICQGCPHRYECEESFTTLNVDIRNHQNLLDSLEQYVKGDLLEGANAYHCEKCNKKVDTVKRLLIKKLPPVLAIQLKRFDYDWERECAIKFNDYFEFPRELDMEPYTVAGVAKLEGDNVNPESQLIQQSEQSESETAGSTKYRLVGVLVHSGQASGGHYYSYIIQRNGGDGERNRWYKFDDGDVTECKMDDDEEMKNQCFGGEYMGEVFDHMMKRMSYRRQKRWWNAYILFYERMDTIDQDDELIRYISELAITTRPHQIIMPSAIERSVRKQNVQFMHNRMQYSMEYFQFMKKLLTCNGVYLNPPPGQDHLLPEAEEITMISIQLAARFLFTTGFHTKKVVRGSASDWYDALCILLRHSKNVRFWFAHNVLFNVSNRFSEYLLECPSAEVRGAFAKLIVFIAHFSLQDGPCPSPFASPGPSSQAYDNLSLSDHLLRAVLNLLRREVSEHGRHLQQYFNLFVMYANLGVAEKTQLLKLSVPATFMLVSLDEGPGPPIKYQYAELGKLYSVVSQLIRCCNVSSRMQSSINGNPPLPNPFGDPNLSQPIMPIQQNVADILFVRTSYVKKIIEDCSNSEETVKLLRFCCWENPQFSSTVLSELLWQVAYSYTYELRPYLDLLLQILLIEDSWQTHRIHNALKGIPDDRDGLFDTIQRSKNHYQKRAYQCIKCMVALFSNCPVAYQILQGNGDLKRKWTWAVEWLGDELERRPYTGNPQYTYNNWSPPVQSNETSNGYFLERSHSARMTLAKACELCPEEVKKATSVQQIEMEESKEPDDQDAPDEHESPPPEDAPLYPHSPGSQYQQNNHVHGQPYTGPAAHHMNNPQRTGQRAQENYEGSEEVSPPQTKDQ
UniProt Q96KR1: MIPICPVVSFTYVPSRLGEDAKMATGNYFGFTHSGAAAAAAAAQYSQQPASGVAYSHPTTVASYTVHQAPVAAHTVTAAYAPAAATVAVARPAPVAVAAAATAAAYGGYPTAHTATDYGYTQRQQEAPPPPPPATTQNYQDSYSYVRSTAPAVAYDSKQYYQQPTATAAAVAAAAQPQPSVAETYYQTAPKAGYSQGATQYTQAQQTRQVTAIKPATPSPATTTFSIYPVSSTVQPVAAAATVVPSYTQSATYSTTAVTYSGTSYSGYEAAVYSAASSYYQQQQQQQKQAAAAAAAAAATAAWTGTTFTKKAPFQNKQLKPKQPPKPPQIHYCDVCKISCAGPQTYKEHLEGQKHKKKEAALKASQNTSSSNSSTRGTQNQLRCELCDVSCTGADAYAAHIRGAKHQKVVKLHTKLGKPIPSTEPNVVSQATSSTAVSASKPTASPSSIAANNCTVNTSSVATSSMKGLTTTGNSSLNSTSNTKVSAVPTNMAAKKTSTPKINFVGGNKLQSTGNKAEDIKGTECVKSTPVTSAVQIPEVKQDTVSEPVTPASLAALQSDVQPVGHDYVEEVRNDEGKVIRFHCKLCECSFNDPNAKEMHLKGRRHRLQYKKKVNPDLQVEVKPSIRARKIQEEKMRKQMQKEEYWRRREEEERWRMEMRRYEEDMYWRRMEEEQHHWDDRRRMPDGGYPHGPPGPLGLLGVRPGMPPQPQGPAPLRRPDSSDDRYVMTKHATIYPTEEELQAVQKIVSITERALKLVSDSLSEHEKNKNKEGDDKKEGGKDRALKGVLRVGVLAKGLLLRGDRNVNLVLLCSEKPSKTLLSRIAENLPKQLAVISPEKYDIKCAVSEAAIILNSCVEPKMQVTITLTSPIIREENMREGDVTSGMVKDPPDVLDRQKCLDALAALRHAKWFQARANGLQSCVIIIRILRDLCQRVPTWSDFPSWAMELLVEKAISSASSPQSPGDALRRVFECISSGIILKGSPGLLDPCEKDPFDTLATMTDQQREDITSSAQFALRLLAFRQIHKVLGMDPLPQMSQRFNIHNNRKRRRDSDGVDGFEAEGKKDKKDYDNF

According to article PMC4441479:

The substances below were run against ZAP-L-FL (FLAG-tagged ZAP-L) (human) (UniProt Q7Z2W4) (assay: affinity purification with mass spectrometry; ZAP-L-FL or empty vector transfected in 293T; IP with α-FLAG agarose from whole cell lysates (sonication) in the presence or absence of 30 μg/ml RNase; tandem MS; hits: 3 or more peptides, two replicate IPs, not in vector control).
In the case of “Carbamoyl-phosphate synthetase 2, aspartate transcarbamylase (from UniProt P27708 1-2225)”, the binding was “binds”. “Chaperonin containing TCP1, subunit 6A (zeta 1) (from UniProt P40227-1 1-531)” was tested, and the binding was “binds”. For “Chaperonin containing TCP1, subunit 7 (eta) (from UniProt Q99832-1 1-543)”, the binding was “binds”. “Chromodomain helicase DNA binding protein 4 (from UniProt Q14839-1 1-1912)” was tested, and the binding was “binds”. In the case of “DnaJ (Hsp40) homolog, subfamily A, member 1 (from UniProt P31689-1 1-397)”, the binding was “binds”. In the case of “DnaJ (Hsp40) homolog, subfamily A, member 2 (from UniProt O60884 1-412)”, the binding was “binds”. In the case of “ELAV (embryonic lethal, abnormal vision, Drosophila)-like 1 (Hu antigen R) (from UniProt Q15717-1 1-326)”, the binding was “binds”. With “Fragile X mental retardation, autosomal homolog 2 (from UniProt P51116 1-673)” the binding was “binds”. For “GTPase activating protein (SH3 domain) binding protein 1 (from UniProt Q13283-1 1-466)”, the binding was “binds”. For “General transcription factor IIIC, polypeptide 1, alpha 220kDa (from UniProt Q12789-2 1-2109)”, the binding was “binds”. “General transcription factor IIi (from UniProt P78347-1 1-998)” was tested, and the binding was “binds”. With “Glutamyl-prolyl-tRNA synthetase (from UniProt P07814 1-1512)” the binding was “binds”. With “Heat shock 70kDa protein 4 (from UniProt P34932-1 1-840)” the binding was “binds”. “Heat shock 105kDa/110kDa protein 1 (from UniProt Q92598-1 1-858)” was tested, and the binding was “binds”. “Heterochromatin protein 1-binding protein 3 (from UniProt Q5SSJ5-1 1-553)” was tested, and the binding was “binds”. With “Heterogeneous nuclear ribonucleoprotein U-like 1 (from UniProt Q9BUJ2-1 1-856)” the binding was “binds”. For “Histone deacetylase 1 (from UniProt Q13547 1-482)”, the binding was “binds”. In the case of “Insulin-like growth factor 2 mRNA binding protein 3 (from UniProt O00425-1 1-579)”, the binding was “binds”. With “Interleukin enhancer-binding factor 2 (from UniProt Q12905 1-390)” the binding was “binds”. With “KRI1 homolog (S. cerevisiae) (from UniProt Q8N9T8 1-703)” the binding was “binds”. With “Ly1 antibody reactive (from UniProt Q9NX58 1-379)” the binding was “binds”. For “Poly [ADP-ribose] polymerase 1 (from UniProt P09874 1-1014)”, the binding was “binds”. “Protein phosphatase 2, catalytic subunit, alpha isozyme (from UniProt P67775-1 1-309)” was tested, and the binding was “binds”. For “Protein phosphatase 2, regulatory subunit A, alpha (from UniProt P30153 1-589)”, the binding was “binds”. “Protein phosphatase 2, regulatory subunit A, beta (from UniProt P30154-4 1-556)” was tested, and the binding was “binds”. “RuvB-like 1 (E. coli) (from UniProt Q9Y265-1 1-456)” was tested, and the binding was “binds”. “RuvB-like 2 (E. coli) (from UniProt Q9Y230-1 1-463)” was tested, and the binding was “binds”. For “Staufen double-stranded RNA binding protein 1 (from UniProt O95793-2 1-496)”, the binding was “binds”. With “Topoisomerase (DNA) I (from UniProt P11387 1-765)” the binding was “binds”. “Tripartite motif containing 25/E3 ubiquitin/ISG15 ligase TRIM25 (from UniProt Q14258 1-630)” was tested, and the binding was “binds”. With “Ubiquitin specific peptidase 7 (herpes virus-associated) (from UniProt Q93009-1 1-1102)” the binding was “binds”. In the case of “Ubiquitin specific peptidase 9, X-linked (from UniProt Q93008-3 1-2570)”, the binding was “binds”. For “YTH domain family, member 2 (from UniProt Q9Y5A9-1 1-579)”, the binding was “binds”. With “Zinc finger RNA binding protein (from UniProt Q96KR1 1-1074)” the binding was “binds”. For “Zinc finger protein 24 (from UniProt P17028-1 1-368)”, the binding was “binds”.

These are yes or no findings as the source states them, for the method shown. In cells and extracts the contact can be indirect. These calls come from enrichment with a bait or labelling near it, and not all partners need be listed.
